Reference: PubChem BioAssay AID652259 (Drosophila RNAi Screening Center, 2013)

Test: 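Identify new Wingless signalling regulators in fly cells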 (primary screen)
Cells: Drosophila clone 8 imaginal disc epithelial cells
Reagents: long dsRNA against Drosophila genes
Treatment: pathway stimulated by co-transfected Wingless expression plasmid
Measurement: 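Firefly luciferase from a tcf-site Wingless reporter, measured alongside co-transfected Renilla luciferase that tracks transfection; pathway stimulated by a Wingless plasmid; the firefly-to-Renilla ratio is not deposited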
Reading the numbers: firefly reporter light: higher = more Wg reporter light, before normalisation; Renilla control light: higher = more transfected or surviving cells
Rule for the call: 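a knock-down is a candidate when at least two out of four statistical tests show it departing from its plate mean; one test alone signals a weak candidate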
Meaning of the calls: active = candidate regulator (raises or lowers reporter); inactive = not a candidate
The screen tested about 22,000 reagents; below is an unselected part of those with a known target gene and a result. Of all reagents, 233 (1.1%) got an active call. 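Light values are raw, unnormalised plate reads; the ratio scores behind the reporter calls were not deposited.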 Entries without a mark were called inactive. Names joined by + are all predicted targets of the reagent. The record does not give: the amount of reagent, the time to read-out, the dose of the treatment.

CG33178 [DRSC19950] gave firefly reporter light, replicate 1 = 23825; Renilla control light, replicate 1 = 11076.
Silencing of Lerp (lysosomal enzyme receptor protein) [DRSC14750] came out at: firefly reporter light, replicate 1 = 5525; Renilla control light, replicate 1 = 2200.
Lerp (lysosomal enzyme receptor protein) [DRSC14751] scored firefly reporter light, replicate 1 = 10416; Renilla control light, replicate 1 = 2912.
Against Lerp (lysosomal enzyme receptor protein) [DRSC16030] the deposit lists firefly reporter light, replicate 1 = 6108; Renilla control light, replicate 1 = 3328.
Against Lerp (lysosomal enzyme receptor protein) [DRSC16031], the values are firefly reporter light, replicate 1 = 6835; Renilla control light, replicate 1 = 2800.
For thoc5 [DRSC04327], the entry reads firefly reporter light, replicate 1 = 9909; Renilla control light, replicate 1 = 3145.
MFS12 (Major Facilitator Superfamily Transporter 12) [DRSC07268] gave firefly reporter light, replicate 1 = 4136; Renilla control light, replicate 1 = 1876.
With knock-down of Cpr64Aa (Cuticular protein 64Aa) [DRSC08460] the results were firefly reporter light, replicate 1 = 9670; Renilla control light, replicate 1 = 2569.
With knock-down of stan (starry night) [DRSC05234] the results were firefly reporter light, replicate 1 = 16195; Renilla control light, replicate 1 = 3872.
stan (starry night) [DRSC07697] showed firefly reporter light, replicate 1 = 3322; firefly reporter light, replicate 2 = 6458; Renilla control light, replicate 1 = 592; Renilla control light, replicate 2 = 2620.
For CG12375 [DRSC02163], the entry reads firefly reporter light, replicate 1 = 10516; Renilla control light, replicate 1 = 3954.
For enok (enoki mushroom) [DRSC04096], the entry reads reporter change call, replicate 1 = Wg reporter activity raised; firefly reporter light, replicate 1 = 25498; Renilla control light, replicate 1 = 4520.
After knock-down of Cpr76Bc (Cuticular protein 76Bc) [DRSC11062], the record shows firefly reporter light, replicate 1 = 21881; Renilla control light, replicate 1 = 7541.
Ddx56 (DEAD-box helicase 56) [DRSC20567] scored firefly reporter light, replicate 1 = 10423; Renilla control light, replicate 1 = 8105.
Alp4 (Alkaline phosphatase 4) [DRSC14116] showed firefly reporter light, replicate 1 = 7076; Renilla control light, replicate 1 = 3237.
With knock-down of CG4953 [DRSC02792], the record shows firefly reporter light, replicate 1 = 8155; Renilla control light, replicate 1 = 2505.
Pstk + Tim9b [DRSC19504] scored firefly reporter light, replicate 1 = 2841; firefly reporter light, replicate 2 = 7120; Renilla control light, replicate 1 = 1074; Renilla control light, replicate 2 = 1936.
For Pstk + Tim9b [DRSC20292], the values are firefly reporter light, replicate 1 = 22931; Renilla control light, replicate 1 = 11606.
Knock-down of Ptp4E (Protein tyrosine phosphatase 4E) [DRSC18701] came out at: firefly reporter light, replicate 1 = 2202; firefly reporter light, replicate 2 = 9408; Renilla control light, replicate 1 = 662; Renilla control light, replicate 2 = 1571.
Silencing of CG14715 [DRSC14938] gave: firefly reporter light, replicate 1 = 6192; Renilla control light, replicate 1 = 2192.
Depletion of Syx7 (Syntaxin 7) [DRSC11763] came out at: firefly reporter light, replicate 1 = 6474; Renilla control light, replicate 1 = 3293.
Depletion of kl-5 (retired record) [DRSC20707] came out at: firefly reporter light, replicate 1 = 22486; Renilla control light, replicate 1 = 11565.
Qsox3 (Quiescin sulfhydryl oxidase 3) [DRSC16096] showed firefly reporter light, replicate 1 = 37093; Renilla control light, replicate 1 = 6321.
Silencing of mgr (merry-go-round) [DRSC16099] came out at: firefly reporter light, replicate 1 = 10820; Renilla control light, replicate 1 = 3496.
Depletion of nw (narrow) [DRSC06451] came out at: firefly reporter light, replicate 1 = 9125; Renilla control light, replicate 1 = 3732.
Against nw (narrow) [DRSC06749], the values are firefly reporter light, replicate 1 = 17008; Renilla control light, replicate 1 = 4453.
After knock-down of nw (narrow) [DRSC06896], the screen gave firefly reporter light, replicate 1 = 4341; Renilla control light, replicate 1 = 1835.
For boca [DRSC06408], the entry reads firefly reporter light, replicate 1 = 2482; firefly reporter light, replicate 2 = 7084; Renilla control light, replicate 1 = 855; Renilla control light, replicate 2 = 2467.
For Pp1-Y2 (Protein phosphatase 1, Y-linked 2) [DRSC21608] the deposit lists firefly reporter light, replicate 1 = 5.76e5; firefly reporter light, replicate 2 = 5.11e5; Renilla control light, replicate 1 = 1.98e5; Renilla control light, replicate 2 = 1.49e5.
For l(1)G0320 (lethal (1) G0320) [DRSC18255], the entry reads firefly reporter light, replicate 1 = 1868; firefly reporter light, replicate 2 = 5929; Renilla control light, replicate 1 = 569; Renilla control light, replicate 2 = 1968.
Depletion of mab-21 [DRSC18791] gave: firefly reporter light, replicate 1 = 26643; Renilla control light, replicate 1 = 14352.
Silencing of M1BP (Motif 1 Binding Protein) [DRSC16566] gave: firefly reporter light, replicate 1 = 2804; Renilla control light, replicate 1 = 912.

2 entries already listed, ordered by “Renilla control light, replicate 1”, high to low:
thoc5 [DRSC04327]: firefly reporter light, replicate 1 = 9909; Renilla control light, replicate 1 = 3145
Lerp (lysosomal enzyme receptor protein) [DRSC16031]: firefly reporter light, replicate 1 = 6835; Renilla control light, replicate 1 = 2800
